# From the supplement of paper PMC12889115
# The other results are listed elsewhere or left out. Values are raw readings; no control value is given beside them.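 First-pass screen: polymyxin B was added at a level that permeabilizes the Salmonella outer membrane while sparing the inner membrane. DMSO wells, with and without polymyxin B, defined maximum growth. Because plates differed from one another, each plate's data were ranked separately and the compounds with the lowest OD600 were carried forward as hits.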
# Tested on: Salmonella enterica serovar Typhimurium SL1344
# Assay: bacterial growth OD600 after 18 h with compound and polymyxin B; higher = more bacterial growth (less inhibition)
# Conditions: 50 µM, Mueller-Hinton broth
Compound,bacterial growth OD600 (polymyxin B 1 µg/mL),bacterial growth OD600 (polymyxin B 0.75 µg/mL)
O=C(Nc1ccc(Oc2cccnc2)cc1)C1CCN(CC2CC=CCC2)CC1 (stereo unspecified),0.755,–
O=C(CC(c1ccccc1)c1ccc(Cl)cc1)N1CCc2[nH]ncc2C1 (stereo unspecified),0.667,–
O=C1N(Cc2cccc(Cl)c2)C[C@@H]2C[C@@H](c3ccc(F)cc3F)N3CCC[C@@]123,–,0.146
O=C1CCC(C(=O)N2CCSCC2)CN1CCCN1CCOCC1 (stereo unspecified),0.981,–
CN(Cc1ccc(Oc2ccccc2)cc1)C(=O)Cn1cc(NC(=O)CCC(=O)c2ccccc2)cn1,–,0.148
COCCn1cc(C(=O)NCC2(c3ccccc3)CCCC2)c(=O)c(C(=O)N2CCCCC2C)c1 (stereo unspecified),–,0.766
Cc1ccc2c(c1)CN(C(=O)Cn1cc3ccccc3n1)CC(c1ccsc1)O2 (stereo unspecified),–,0.001
O=C1NCCN1CCNc1ccc(-c2nc(C3CC3)no2)cn1,1.02,–
CC(C)S(=O)(=O)N1CCC2(CCCN(Cc3cccc(F)c3F)C2=O)C1 (stereo unspecified),0.873,–
COc1ccc(-c2cnnc(NCc3c[nH]nc3-c3ccc(F)cc3)n2)cc1OC,–,0.008
COc1cccc(CC(C2CCN(C(=O)[C@H]3C[C@@H]4C=C[C@H]3C4)CC2)N(C)C(=O)CCSC)c1 (stereo partly specified),–,1.01
CCCc1ccc2oc(C(=O)N3CCCC(COC)C3)c(C)c2c1 (stereo unspecified),-0.001,–
Cc1occc1C(=O)NC1CC(=O)N(CCc2ccccc2)C1 (stereo unspecified),0.988,–
Cc1cccc(-c2cnc(C)nc2C2CCCN(C(=O)c3ccccc3F)C2)c1 (stereo unspecified),–,0.825
CCC(=O)NCC1Cc2cccc(-c3ncccc3C)c2O1 (stereo unspecified),–,0.808
CCC(C)n1cc(C(=O)NCc2cn3cc(C)sc3n2)c(=O)c(C(=O)N2CCCCCC2)c1 (stereo unspecified),–,0.874

# Looked up above.
# O=C(CC(c1ccccc1)c1ccc(Cl)cc1)N1CCc2[nH]ncc2C1 (stereo unspecified) – bacterial growth OD600 (polymyxin B 1 µg/mL): 0.667
# CC(C)S(=O)(=O)N1CCC2(CCCN(Cc3cccc(F)c3F)C2=O)C1 (stereo unspecified) – bacterial growth OD600 (polymyxin B 1 µg/mL): 0.873

# (continued)

Compound,bacterial growth OD600 (polymyxin B 1 µg/mL),bacterial growth OD600 (polymyxin B 0.75 µg/mL)
O[C@@H]1CN(Cc2cnn(-c3cccc(Cl)c3)c2)CC[C@H]1N1CCOCC1,–,0.793
CN(C(=O)c1ccsc1)C(Cc1ccccc1F)C1CCN(C(=O)CC2CCCC2)CC1 (stereo unspecified),–,0.663
COC(=O)c1c(S(=O)(=O)Nc2cccc(F)c2)sc2c1CCN(CC=C(C)C)C2,–,0.714
Cc1c(CN2CCOc3ccc(C4=Cc5ccccc5CC4)cc3C2)c(=O)n(-c2ccccc2)n1C,–,0.001
COCC(=O)Nc1cc(C(=O)N[C@@H]2CCCC[C@H]2c2ccccc2)cc2nc(-c3cccnc3)n(C)c12,–,0.854
CCCS(=O)(=O)N1CCCC1C(=O)Nc1ccccc1-c1ccc(OC)cc1 (stereo unspecified),–,0.752
CCC(C)NC(=O)c1cc(NC(C)=O)c2c(c1)nc(-c1ccccc1F)n2CC (stereo unspecified),–,0.982
CC(C)Cc1cn[nH]c1C1CCCN(Cc2cccc3c2OCO3)C1 (stereo unspecified),–,0.788
Cc1cccc(-c2cnc(C)nc2C2CCCN(C(=O)c3ccccc3C(F)(F)F)C2)c1 (stereo unspecified),–,0.819
CN(C)C1CCN(C(=O)c2csc3nc(-c4ccccc4Cl)cn23)C1 (stereo unspecified),0.821,–
COCCC(=O)NCc1cccnc1N1CCCC(O)C1 (stereo unspecified),–,0.784
COc1ccc(CCN2CC(C(=O)NCCCN3CCOCC3)CCC2=O)cc1 (stereo unspecified),0.958,–
O=C(CCOc1ccccc1)Nc1ccnn1C1CCN(C(=O)c2ccncc2)CC1,0.946,–
CCN(Cc1nccn1C)C(=O)c1ccc(N2CCCC(COC)C2)nc1 (stereo unspecified),1.12,–
COc1ccc(CC(=O)N2CCc3c(cnc(C)c3CNC(=O)c3ccc4c(c3)OCO4)C2)cc1,–,0.788
